The values below come from the supplement of paper PMC12024529.

Where a name gives a salt, the structure may show the parent alone. The list shows a part of the results. Plates or batches differ in their baseline, so values are only roughly comparable.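 Wild-type or misfolding-prone missense mutant B-domain-deleted factor VIII, fused to Gaussia luciferase, is stably expressed in HEK293 lines. Each score is (mean triplicate-well luminescence minus DMSO mean) divided by DMSO standard deviation. Hits score at least 2; lower scores could stem from decreased secretion or poorer cell viability.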

This experiment has as its system HEK293 p.N1941S BDD-FVIII-Gluc. In words: secreted FVIII-Gluc luciferase Z-score vs DMSO control; higher = more FVIII-Gluc secretion. The settings on record: 5 µM; 24 h.
On to `CCCS(=O)(=O)Nc1ccc(F)c(C(=O)c2c[nH]c3ncc(-c4ccc(Cl)cc4)cc23)c1F` [Vemurafenib (PLX4032)], for which the “secreted FVIII-Gluc luciferase Z-score” value is inactive: -1.5. The figure for `NS(=O)(=O)c1cc2c(cc1Cl)N=CNS2(=O)=O` [Chlorothiazide] is inactive: 0.0286. In the case of `CC(C)c1nc(N(C)S(C)(=O)=O)nc(-c2ccc(F)cc2)c1/C=C/[C@@H](O)C[C@@H](O)CC(=O)O` [Rosuvastatin calcium (Crestor)], the “secreted FVIII-Gluc luciferase Z-score” value is inactive: -0.731. The figure for `COc1ccc(C2CNC(=O)C2)cc1OC1CCCC1` (stereo not drawn) [S-(+)-Rolipram] is inactive: -0.0321; for `CCc1c2c(nc3ccc(OC(=O)N4CCC(N5CCCCC5)CC4)cc13)-c1cc3c(c(=O)n1C2)COC(=O)[C@]3(O)CC` [Irinotecan] it is inactive: -12.5; for `CO/N=C(\C(=O)N[C@@H]1C(=O)N2C(C(=O)O)=C(CSC(=O)c3ccco3)CS[C@H]12)c1csc(N)n1` [Ceftiofur HCl] it is inactive: -0.485. With `O=C(NCCO[N+](=O)[O-])c1cccnc1` [Nicorandil (Ikorel)], the “secreted FVIII-Gluc luciferase Z-score” value was inactive: -3.61. The figure for `O=C1CCC(N2C(=O)c3ccccc3C2=O)C(=O)N1` (configuration not stated) [Thalidomide] is inactive: 0.397; for `CC1(C)O[C@@H]2C[C@H]3[C@@H]4CCC5=CC(=O)C=C[C@]5(C)[C@@]4(F)[C@@H](O)C[C@]3(C)[C@]2(C(=O)CO)O1` [Triamcinolone Acetonide] it is active: 7.39.

For the molecule `CCCCNc1ccc(C(=O)OCCN(C)C)cc1` [Tetracaine hydrochloride (Pontocaine)], the “secreted FVIII-Gluc luciferase Z-score” value was inactive: -1.33. With `CCOC(=O)C1=C(C)NC(C)=C(C(=O)OCC)C1c1ccccc1/C=C/C(=O)OC(C)(C)C` [Lacidipine (Lacipil, Motens)], the “secreted FVIII-Gluc luciferase Z-score” value is inactive: -0.757. Next, `CN1CCC(=C2c3ccccc3CCc3sccc32)CC1` [Pizotifen malate]: inactive: -2.33; `Oc1cc(O)c(Cl)cn1` [Gimeracil]: inactive: -0.445. In the case of `C[C@@H]1C[C@H]2[C@@H]3CCC4=CC(=O)C=C[C@]4(C)[C@@]3(F)[C@@H](O)C[C@]2(C)[C@@]1(O)C(=O)CO` [Dexamethasone], the “secreted FVIII-Gluc luciferase Z-score” value was active: 4.29. Regarding `CCCC(CCC)C(=O)O` [Divalproex sodium], the “secreted FVIII-Gluc luciferase Z-score” value is inactive: 1.45. As to `COC(=O)C1=CO[C@@H](O)[C@@H]2C(CO)=CC[C@H]12` [Genipin], the “secreted FVIII-Gluc luciferase Z-score” value was inactive: -0.549.

In the case of `CCNC(=O)CCC/C=C\C[C@@H]1[C@@H](/C=C/[C@@H](O)CCc2ccccc2)[C@H](O)C[C@@H]1O` [Bimatoprost], the “secreted FVIII-Gluc luciferase Z-score” value is inactive: -0.263.
